# Library screen at single concentrations

Amino acid sequences for entries named in this document (tags omitted). Residues count along the entry.
UniProt A4I591, 1-473: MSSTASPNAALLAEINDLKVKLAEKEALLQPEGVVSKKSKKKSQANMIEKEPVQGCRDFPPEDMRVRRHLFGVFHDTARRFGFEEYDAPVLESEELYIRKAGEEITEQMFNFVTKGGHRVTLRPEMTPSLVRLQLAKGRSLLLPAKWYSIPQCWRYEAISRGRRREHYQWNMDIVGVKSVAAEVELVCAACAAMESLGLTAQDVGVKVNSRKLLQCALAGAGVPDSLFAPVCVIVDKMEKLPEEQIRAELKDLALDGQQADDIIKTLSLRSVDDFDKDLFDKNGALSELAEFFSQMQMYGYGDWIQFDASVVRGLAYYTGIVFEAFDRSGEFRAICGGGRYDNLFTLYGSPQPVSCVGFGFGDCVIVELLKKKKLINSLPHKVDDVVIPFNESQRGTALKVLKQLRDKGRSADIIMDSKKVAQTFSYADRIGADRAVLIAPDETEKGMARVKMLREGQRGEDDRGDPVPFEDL

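Enzyme assay of histidyl-tRNA synthetase; the read-out is not stated. Target: Histidine-tRNA ligase, Leishmania infantum (UniProt A4I591). Compounds at 30 µM. The record gives no direction; compounds that gave an IC50 in retests scored well above the rest, so higher reads as stronger inhibition. The assay is labelled LdHisRS but filed under L. infantum. About 69,000 compounds were tested under these conditions; 0.6% (about 410) showed 50% or more at least once.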

The filed quantity is “Percent Effect” (%).
The record does not define 0% and 100%; most values in the screen are far below 50% and negative numbers occur (in some assays of this library far below -100).
This is an unselected part of the compounds tested.

Compound,percent effect
Cc1ccc(-c2nc(C(=O)N3CCN(C(=O)N(C)C)CC3)cs2)c(C)c1,18.35
O=C(CCc1ccsc1)NCC1CCN(C2CC2)C1 (stereo not shown),6.218
CNC(=O)[C@H]1C[C@@H]2CN(C(=O)c3ccc(C)nc3)C[C@@H]2N1C,16
CC(C)c1noc(C(C)N2CCN(CCc3ccncc3)CC2)n1 (stereo not shown),6.667
CCC(=O)N1CCC2(CC1)C(=O)N(Cc1cccnc1)CCN2C,9.615
COc1nn(C)c2c1CCCN(S(=O)(=O)c1ccccc1F)C2,19.74
O=C(c1ccnnc1)N1CCC2(CCN(c3ccsc3)C2=O)C1 (stereo not shown),-5.263
Cc1cc(CN(C)C2CCCN(Cc3noc(C)n3)C2)no1 (stereo not shown),18.42
COc1ccc(N(Cc2ccco2)C(=O)C2CCCO2)cc1F (stereo not shown),11.76
CC(NC(=O)Cc1cccs1)(C(N)=O)c1cccc(Cl)c1 (stereo not shown),-14.29
CCS(=O)(=O)CCN1CCC(N(C)Cc2noc(C(C)C)n2)C1 (stereo not shown),6.25
Cc1ccc(NC2CCN(C(=O)CCNS(C)(=O)=O)CC2)nn1,3.077
COc1ccc(N2CCC(N3CCOC(C(F)(F)F)C3)CC2)cc1 (stereo not shown),14.29
Cc1noc(C)c1CC(=O)N1CC[C@@](C)(O)[C@H](Oc2ccccc2)C1,5.634
COc1ccc(CC(=O)N2CCCC(c3cc(C)[nH]n3)C2)cc1 (stereo not shown),9.174
CC(O)CN1CCN(C(=O)c2ccc(CN(C)C)cc2)CC1 (stereo not shown),5.263
Cn1ccnc1CN1CCC2(CC1)CC(Nc1ccccn1)CO2 (stereo not shown),22.12
O=C1[C@H]2CN(Cc3ccoc3)C[C@H]2CN1Cc1ccncc1,8.491
Cc1ccc(CN(C)C(=O)CN2CCCC2Cn2cccn2)o1 (stereo not shown),13.46
OC(CN1CCCCc2ccccc21)Cn1cccn1 (stereo not shown),4.712
O=C(O)C1(Cc2cccc(-c3ccc(F)c(F)c3)c2)CCOCC1,11.11
CCCc1noc(C(C)S(=O)(=O)Cc2nc(C3CC3)no2)n1 (stereo not shown),5.983
CCc1ccc(C2CCCCCN2C(=O)CNC(=O)NC2CC2)o1 (stereo not shown),22.58
COc1ccc2cnn(CC(=O)NC3CCCCC3)c(=O)c2c1OC,14.58
O=C(NCCOc1ccc2c(c1)CCC2)N1CCS(=O)(=O)CC1,-102.1
CCn1cnnc1CNC(=O)N1CCN(c2ccccc2Cl)CC1,8.696
COc1cc(NC(=O)c2ccc(C)c(F)c2)c(C(=O)N(C)C)cc1OC,16.96
O=C(C1CCS(=O)(=O)C1)N1CCC(=Cc2cccc(F)c2)CC1 (stereo not shown),4
O=C(Cn1ccnc1)N(CCO)CCSc1ccc(Cl)cc1,23.38
CCOC(=O)CC1CCCCN1C(=O)c1cccc2ccnn12 (stereo not shown),-6.667
CC(C)NC(=O)N1CCOC2(CCCN(c3ncccc3F)C2)C1 (stereo not shown),-6.422
Cc1ccc(NC(=O)Cn2ncc(SCC(N)=O)c(Cl)c2=O)cc1,28.21
CCc1nc(C)c([C@H]2CN(C)C[C@@H]2C(=O)NCCc2cnccn2)[nH]1,19.23
CC[C@@]1(O)CCN(c2ncc(Cl)cc2F)C[C@H]1O,17.02
CCc1csc(C2CCCN(C(=O)c3ccc(OC)nc3)C2)n1 (stereo not shown),15.09
CCC(=O)Nc1ccc(OCC(=O)N(C)C(C)c2ccon2)cc1 (stereo not shown),12.5
COC(=O)CCNC(=O)c1ccc(NC(=O)N(C)CC(C)(C)C)cc1,25
Cc1ccccc1-c1cc(NC(=O)NC2CC2)n(CCO)n1,3.2
Cn1nc(C(=O)NC2CCCCC2)cc1NC(=O)C1CC1,14.71
CC(Cn1cccn1)NC(=O)CCc1nc(C(C)(C)C)no1 (stereo not shown),1.786
Cc1cc(C)c2c(c1)C(NC(=O)CSCC(N)=O)CCO2 (stereo not shown),8.772
C[C@@H](CO)NC(=O)c1ccc2nc(NS(C)(=O)=O)sc2c1,17.39
CN(C)c1ccc(CNCc2cnc(N3CCOCC3)nc2)cn1,11.46
CCn1cnnc1C1CCN(C(=O)c2cnc3ccccc3n2)CC1,5.714
Cn1cc(NS(=O)(=O)c2ccc(OC(F)(F)F)cc2)ccc1=O,82.02
CC(C)C(=O)N1CCCC1C(=O)Nc1cc(C(F)(F)F)ccc1F (stereo not shown),10.2
CCC(C)(C)NC(=O)c1ccc(-c2ccco2)[nH]c1=O,15.79
CC(C)COCCCNC(=O)c1cccnc1N1CCOCC1,10.59
c1cncc(OCc2nnn3c2CN(Cc2ccsc2)CCC3)c1,20.75
Cc1ccsc1[C@@H]1CCN(C(=O)Cc2ccc(O)cc2)C[C@H]1O,15.07
CC(=O)NCCc1nc(C(C)C)nn1-c1ccncc1C,15.83
O=C([C@H]1CCS(=O)(=O)[C@@H]2CN(CCc3ccccc3)C[C@H]12)N1CCCC1,17.65
COCC1CN(C(C)=O)CCN(c2cc(C)ncn2)C1 (stereo not shown),0

Repeated from the top, 3 entries:

| Compound | percent effect |
|---|---|
| `Cc1ccc(-c2nc(C(=O)N3CCN(C(=O)N(C)C)CC3)cs2)c(C)c1` | 18.35 |
| `O=C(CCc1ccsc1)NCC1CCN(C2CC2)C1` (stereo not shown) | 6.218 |
| `CNC(=O)[C@H]1C[C@@H]2CN(C(=O)c3ccc(C)nc3)C[C@@H]2N1C` | 16 |

From ChEMBL document CHEMBL3988442, “University of Dundee, Small-Polar-MMV Screening Library” (2021).